The target in this data set is MBP-TCP4D (MBP-fused TCP4 domain) (Arabidopsis thaliana) (UniProt Q8LPR5). Put plainly: EMSA. The following applies: 250-fold unlabeled competitor, anti-MBP supershift; recombinant protein; protein details: MBP. Background: Mobility shift assays separate free from complexed probe on a gel.

By UniProt entry, the sequences of proteins in these tests, tags left out. Where a name states a change or a piece, a line headed by the entry shows the natural chain unless it says otherwise.
UniProt Q8LPR5: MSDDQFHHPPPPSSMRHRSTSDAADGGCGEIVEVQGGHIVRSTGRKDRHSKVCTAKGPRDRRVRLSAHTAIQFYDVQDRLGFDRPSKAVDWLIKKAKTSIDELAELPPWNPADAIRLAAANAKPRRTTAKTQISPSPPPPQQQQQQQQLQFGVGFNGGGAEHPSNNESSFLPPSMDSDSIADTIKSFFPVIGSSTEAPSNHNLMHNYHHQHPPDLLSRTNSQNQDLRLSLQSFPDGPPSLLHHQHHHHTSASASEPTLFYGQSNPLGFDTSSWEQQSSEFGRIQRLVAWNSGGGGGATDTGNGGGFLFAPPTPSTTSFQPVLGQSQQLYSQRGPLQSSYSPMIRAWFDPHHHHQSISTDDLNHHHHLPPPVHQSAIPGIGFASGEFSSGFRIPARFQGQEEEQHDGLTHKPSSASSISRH

Construct, isoform or probe ends are uncertain for at least one entry. At least one verdict was read from the data and is not stated in words by the source.

Consider “TTCTCAGAGTGGTCCGGACATT (double strand) [HAT2-BS2]”, for which the binding result is recorded as “binds”.

As to “CGTGTGGGTGGCCCATCATCAT (double strand) [HAT2-BS3]”, the binding result was “binds”.

For the sequence “CGTTGGTTGGTCCACAACTTTG (double strand) [HAT2-BS1]”, the binding result is given as “binds”.
